# Test results reported in PubChem BioAssay AID720504 (National Center for Advancing Translational Sciences (NCATS), 2013).
# Amino acid sequences for entries named in this document (tags omitted).
# UniProt P53350, whole entry, looked up: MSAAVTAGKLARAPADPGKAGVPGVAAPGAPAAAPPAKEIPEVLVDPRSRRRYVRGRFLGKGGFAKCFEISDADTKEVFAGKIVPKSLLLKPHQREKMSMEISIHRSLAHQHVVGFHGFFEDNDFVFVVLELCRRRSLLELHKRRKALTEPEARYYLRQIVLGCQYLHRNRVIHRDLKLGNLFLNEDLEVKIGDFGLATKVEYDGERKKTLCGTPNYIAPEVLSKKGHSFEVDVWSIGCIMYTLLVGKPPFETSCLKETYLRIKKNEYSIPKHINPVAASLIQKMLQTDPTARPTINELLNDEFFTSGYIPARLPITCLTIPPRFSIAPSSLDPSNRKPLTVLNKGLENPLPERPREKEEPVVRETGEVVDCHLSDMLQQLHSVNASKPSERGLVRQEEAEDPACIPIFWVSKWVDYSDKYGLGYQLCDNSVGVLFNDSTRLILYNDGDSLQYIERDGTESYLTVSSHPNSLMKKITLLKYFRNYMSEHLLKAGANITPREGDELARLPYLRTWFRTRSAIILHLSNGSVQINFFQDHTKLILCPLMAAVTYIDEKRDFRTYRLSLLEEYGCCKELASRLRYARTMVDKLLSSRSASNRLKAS
# The campaign covered roughly 360,000 compounds. About 10,000 (2.8%) were called active. The inconclusive results got no clear call from the source; some entries with a clear call stand among them for comparison. Calls come from the whole dose curve; as a rule, active = well fitted inhibition curve with a large enough effect; inconclusive = small, poorly fitted or top-dose-only effect; inactive = flat fitted curve, though single readings scatter. Potencies beside an inconclusive call are fits to weak or partial responses and may not hold up.
# Molecular target: Serine/threonine-protein kinase PLK1 (Homo sapiens) (UniProt P53350)
# Test: qHTS for Inhibitors of PLK1-PDB (polo-like kinase 1 - polo-box domain): Primary Screen; note: nearly all actives have a fitted effect of over 65% in size; for max response, negative = inhibition: series mostly up to about 57 µM
# Details: Plk1 PBD binding of FITC phosphopeptide, fluorescence polarization
# % is set by controls: 0 for no effect and ±100 for the full control effect; potency is the fitted concentration of half-maximal effect.
Compound,Potency,"max response, negative = inhibition"
C[n+]1c(-c2ccccc2)sc2ccccc21,"inconclusive: 10.6 µM [inhibitor, partial curve]",
Cc1cc(Cc2c(O)[nH]c(=S)[nH]c2=O)ccc1OC(C)C,active: 26.7 µM,
CN(CCc1nnc(N)s1)[N+](=O)[O-],"inconclusive: 26.7 µM [inhibitor, single point]",
CCCN1CCc2cc(O)cc3c2[C@H]1Cc1ccc(O)c(O)c1-3,,inactive: -23.7%
COC(=O)C1=Nc2ccccc2/C1=C\c1c(O)n(C)c(=O)n(C)c1=O,active: 4.74 µM,
O=C(c1ccc(CNS(=O)(=O)c2ccccc2)cc1)N1CCC2(CC1)OCCO2,active: 21.2 µM,
COc1cc(/C=C2\C(=O)NC(=O)N(c3ccccc3)C2=O)c([N+](=O)[O-])cc1OC,active: 11.9 µM,
CN(C)c1ccc(C=C2C(=O)NC(=O)NC2=O)cc1,active: 2.99 µM,
Cc1cc(/C=C2\C(=O)NC(=O)N(c3ccc(Br)cc3)C2=O)c(C)n1-c1cc(C(=O)O)cc(C(=O)O)c1,active: 11.9 µM,
CCOC(=O)[C@]12Cc3c(cc(OC)c(OC)c3OC)[C@H]1N(C)C(=O)c1ccccc12,"inconclusive: 16.8 µM [inhibitor, single point]",
NC(=O)C1CCN(/C=C2\C(=O)NC(=O)N(Cc3ccco3)C2=O)CC1,"inconclusive: 26.7 µM [inhibitor, single point]",
O=C(N/N=C/c1c(O)n(C2CCCCC2)c(=S)[nH]c1=O)c1ccccc1O,"inconclusive: 23.8 µM [inhibitor, partial curve]",
CCCCOc1ccc(C(C)=O)cc1Cc1c(O)[nH]c(=S)[nH]c1=O,"inconclusive: 21.2 µM [inhibitor, partial curve]",
O=C1NC(=O)N(CCC2=CCCCC2)C(=O)/C1=C/c1cccs1,active: 0.752 µM,
Cc1ccccc1-n1c(-c2ccc([N+](=O)[O-])cc2)nc2ccccc2c1=O,,inactive: -1.5%
CCOP(=O)(OCC)/C(=N/OC(=O)c1ccc(Cl)cc1Cl)C(N)=O,"inconclusive: 18.9 µM [inhibitor, partial curve]",
COc1ccc(Br)cc1CNCCc1ccc2c(c1)OCO2,,inactive: -6.74%
CC(=O)c1ccc(OC(C)C)c(Cc2c(O)[nH]c(=S)[nH]c2=O)c1,"inconclusive: 26.7 µM [inhibitor, single point]",
CC(C)CS(=O)(=O)C1=NN2C(=N)/C(=C\c3ccc(OC(=O)c4ccco4)cc3)C(=O)N=C2S1,active: 21.2 µM,
COC(=O)C1=C(C(=O)OC)C2OC1c1cc3ccccc3cc12,active: 2.99 µM,
O=C1NC(=O)N(c2ccccc2)C(=O)/C1=C/C=C/c1ccco1,active: 2.38 µM,
CC(C)(C#CC(=O)O)OOC(c1ccccc1)(c1ccccc1)c1ccccc1,"inconclusive: 33.6 µM [inhibitor, single point]",
CN1C(=O)C(=Cc2ccc(OCC(=O)Nc3ccccc3)cc2)C(=O)N(C)C1=O,active: 7.52 µM,

Compound,Potency,"max response, negative = inhibition"
CCCNC(=O)N1[C@H]2CC[C@@H]1C(C(=O)OC)=C(c1ccc(S(C)(=O)=O)cc1)C2,,inactive: -2.17%
O=C1/C(=C/c2ccccc2Cl)N2CCC1CC2,active: 21.2 µM,
Cc1cccc(-n2c(O)c(C)c(=O)[nH]c2=S)c1,active: 11.9 µM,
O=C1CC=C2C3CC4N(CCC45c4ccccc4N1C25)CC3=CCO (stereo unspecified),,inactive: 2.1%
CN1CCN(P(=O)(c2ccccc2)c2nc3ccccc3s2)CC1 (stereo unspecified),"inconclusive: 37.7 µM [inhibitor, single point]",
Fc1ccccc1CNC1CN2CCC1CC2 (stereo unspecified),active: 18.9 µM,
CN1CCN(Cc2cc(C(C)(C)C)c(O)c(C(C)(C)C)c2)CC1,active: 23.8 µM,
COc1cc(N2CCOCC2)ccc1/C=C1\C(=O)NC(=O)N(Cc2ccc3c(c2)OCO3)C1=O,"inconclusive: 1.06 µM [inhibitor, full curve, poor fit]",
COC(=O)C1=C(c2ccc(F)cc2OCc2ccccc2)C[C@@H]2CC[C@H]1N2C(=O)NCc1cccc(F)c1,active: 21.2 µM,
Nc1cccc(SC2CC(=O)N(c3ccc(Cl)cc3C(=O)c3ccccc3)C2=O)c1 (stereo unspecified),"inconclusive: 8.44 µM [inhibitor, partial curve]",
Cc1cc(N2CCCCC2)ccc1C=C1C(=O)N(C)C(=S)N(C)C1=O,active: 3.36 µM,
Oc1cccc2nc3ccccc3nc12,,inactive: -3.66%
CN1CC[C@@]2(C)c3cc(O)ccc3N(C)[C@@H]12,active: 5.32 µM,
COc1ccc2c(c1OC)C(=O)OC2c1c(O)n(Cc2ccc(F)cc2)c(=O)[nH]c1=O (stereo unspecified),"inconclusive: 26.7 µM [inhibitor, partial curve]",
CNC(=O)Oc1cccc2c1OC(C)(C)O2,"inconclusive: 33.6 µM [inhibitor, single point]",
CN1CCC2(CC1)N=C(c1ccc(F)cc1)C(=S)N2,"inconclusive: 29.9 µM [inhibitor, partial curve]",
CCOC(=O)[C@]12Cc3cc(OC)ccc3[C@H]1N(C1CCCCC1)C(=O)c1cc(OC)ccc12,"inconclusive: 6.7 µM [inhibitor, single point]",
O=c1[nH]c(=S)n(-c2ccccc2)c(O)c1/C=N/N1CCOCC1,"inconclusive: 16.8 µM [inhibitor, partial curve]",
Cc1ccc(S(=O)(=O)N[C@@H](CCCCN)C(=O)CCl)cc1,"inconclusive: 7.52 µM [inhibitor, partial curve]",
CCc1ccc(-n2c(O)c(C=NCCN(CC)CC)c(=O)[nH]c2=O)cc1,"inconclusive: 15 µM [inhibitor, partial curve]",
O=C1NC(=S)N(c2ccc(Br)cc2)C(=O)/C1=C/N1CCN(C(=O)c2ccco2)CC1,"inconclusive: 21.2 µM [inhibitor, partial curve]",
O=C1NC(=S)NC(=O)C1=Cc1ccc(OCC(=O)N2CCCC2)cc1,active: 15 µM,
CCOc1ccc(-n2c(O)c(C=Nc3ccc(N(CC)CC)cc3)c(=O)[nH]c2=O)cc1,"inconclusive: 37.7 µM [inhibitor, single point]",

# Entries of single compounds from above:
# O=C(N/N=C/c1c(O)n(C2CCCCC2)c(=S)[nH]c1=O)c1ccccc1O as listed: Potency: inconclusive: 23.8 µM [inhibitor, partial curve]
# Oc1cccc2nc3ccccc3nc12 as listed: max response, negative = inhibition: inactive: -3.66%
